These are yes or no findings as the source states them, for the method shown. In cells and extracts the contact can be indirect. Some entries that bind do so weakly or less than the wild type.
Biological target: wild-type desmoplakin (DSP), fused to FLAG or to GFP (human) (UniProt P15924)
Assay: co-IP; DSP-WT:FLAG precipitated with magnetic beads coated with monoclonal anti-FLAG M2 from lysate (mild lysis buffer) of co-transfected cells, 48 h after transfection; immunoblot

Protein sequences, listed by entry. Tags and fused reporters are not part of them. Lines headed by an entry give the natural chain unless they say otherwise; changes in a name come on top. Chains listed by the source or under a name are the forms on record and can include a tag or linker.
UniProt P15924: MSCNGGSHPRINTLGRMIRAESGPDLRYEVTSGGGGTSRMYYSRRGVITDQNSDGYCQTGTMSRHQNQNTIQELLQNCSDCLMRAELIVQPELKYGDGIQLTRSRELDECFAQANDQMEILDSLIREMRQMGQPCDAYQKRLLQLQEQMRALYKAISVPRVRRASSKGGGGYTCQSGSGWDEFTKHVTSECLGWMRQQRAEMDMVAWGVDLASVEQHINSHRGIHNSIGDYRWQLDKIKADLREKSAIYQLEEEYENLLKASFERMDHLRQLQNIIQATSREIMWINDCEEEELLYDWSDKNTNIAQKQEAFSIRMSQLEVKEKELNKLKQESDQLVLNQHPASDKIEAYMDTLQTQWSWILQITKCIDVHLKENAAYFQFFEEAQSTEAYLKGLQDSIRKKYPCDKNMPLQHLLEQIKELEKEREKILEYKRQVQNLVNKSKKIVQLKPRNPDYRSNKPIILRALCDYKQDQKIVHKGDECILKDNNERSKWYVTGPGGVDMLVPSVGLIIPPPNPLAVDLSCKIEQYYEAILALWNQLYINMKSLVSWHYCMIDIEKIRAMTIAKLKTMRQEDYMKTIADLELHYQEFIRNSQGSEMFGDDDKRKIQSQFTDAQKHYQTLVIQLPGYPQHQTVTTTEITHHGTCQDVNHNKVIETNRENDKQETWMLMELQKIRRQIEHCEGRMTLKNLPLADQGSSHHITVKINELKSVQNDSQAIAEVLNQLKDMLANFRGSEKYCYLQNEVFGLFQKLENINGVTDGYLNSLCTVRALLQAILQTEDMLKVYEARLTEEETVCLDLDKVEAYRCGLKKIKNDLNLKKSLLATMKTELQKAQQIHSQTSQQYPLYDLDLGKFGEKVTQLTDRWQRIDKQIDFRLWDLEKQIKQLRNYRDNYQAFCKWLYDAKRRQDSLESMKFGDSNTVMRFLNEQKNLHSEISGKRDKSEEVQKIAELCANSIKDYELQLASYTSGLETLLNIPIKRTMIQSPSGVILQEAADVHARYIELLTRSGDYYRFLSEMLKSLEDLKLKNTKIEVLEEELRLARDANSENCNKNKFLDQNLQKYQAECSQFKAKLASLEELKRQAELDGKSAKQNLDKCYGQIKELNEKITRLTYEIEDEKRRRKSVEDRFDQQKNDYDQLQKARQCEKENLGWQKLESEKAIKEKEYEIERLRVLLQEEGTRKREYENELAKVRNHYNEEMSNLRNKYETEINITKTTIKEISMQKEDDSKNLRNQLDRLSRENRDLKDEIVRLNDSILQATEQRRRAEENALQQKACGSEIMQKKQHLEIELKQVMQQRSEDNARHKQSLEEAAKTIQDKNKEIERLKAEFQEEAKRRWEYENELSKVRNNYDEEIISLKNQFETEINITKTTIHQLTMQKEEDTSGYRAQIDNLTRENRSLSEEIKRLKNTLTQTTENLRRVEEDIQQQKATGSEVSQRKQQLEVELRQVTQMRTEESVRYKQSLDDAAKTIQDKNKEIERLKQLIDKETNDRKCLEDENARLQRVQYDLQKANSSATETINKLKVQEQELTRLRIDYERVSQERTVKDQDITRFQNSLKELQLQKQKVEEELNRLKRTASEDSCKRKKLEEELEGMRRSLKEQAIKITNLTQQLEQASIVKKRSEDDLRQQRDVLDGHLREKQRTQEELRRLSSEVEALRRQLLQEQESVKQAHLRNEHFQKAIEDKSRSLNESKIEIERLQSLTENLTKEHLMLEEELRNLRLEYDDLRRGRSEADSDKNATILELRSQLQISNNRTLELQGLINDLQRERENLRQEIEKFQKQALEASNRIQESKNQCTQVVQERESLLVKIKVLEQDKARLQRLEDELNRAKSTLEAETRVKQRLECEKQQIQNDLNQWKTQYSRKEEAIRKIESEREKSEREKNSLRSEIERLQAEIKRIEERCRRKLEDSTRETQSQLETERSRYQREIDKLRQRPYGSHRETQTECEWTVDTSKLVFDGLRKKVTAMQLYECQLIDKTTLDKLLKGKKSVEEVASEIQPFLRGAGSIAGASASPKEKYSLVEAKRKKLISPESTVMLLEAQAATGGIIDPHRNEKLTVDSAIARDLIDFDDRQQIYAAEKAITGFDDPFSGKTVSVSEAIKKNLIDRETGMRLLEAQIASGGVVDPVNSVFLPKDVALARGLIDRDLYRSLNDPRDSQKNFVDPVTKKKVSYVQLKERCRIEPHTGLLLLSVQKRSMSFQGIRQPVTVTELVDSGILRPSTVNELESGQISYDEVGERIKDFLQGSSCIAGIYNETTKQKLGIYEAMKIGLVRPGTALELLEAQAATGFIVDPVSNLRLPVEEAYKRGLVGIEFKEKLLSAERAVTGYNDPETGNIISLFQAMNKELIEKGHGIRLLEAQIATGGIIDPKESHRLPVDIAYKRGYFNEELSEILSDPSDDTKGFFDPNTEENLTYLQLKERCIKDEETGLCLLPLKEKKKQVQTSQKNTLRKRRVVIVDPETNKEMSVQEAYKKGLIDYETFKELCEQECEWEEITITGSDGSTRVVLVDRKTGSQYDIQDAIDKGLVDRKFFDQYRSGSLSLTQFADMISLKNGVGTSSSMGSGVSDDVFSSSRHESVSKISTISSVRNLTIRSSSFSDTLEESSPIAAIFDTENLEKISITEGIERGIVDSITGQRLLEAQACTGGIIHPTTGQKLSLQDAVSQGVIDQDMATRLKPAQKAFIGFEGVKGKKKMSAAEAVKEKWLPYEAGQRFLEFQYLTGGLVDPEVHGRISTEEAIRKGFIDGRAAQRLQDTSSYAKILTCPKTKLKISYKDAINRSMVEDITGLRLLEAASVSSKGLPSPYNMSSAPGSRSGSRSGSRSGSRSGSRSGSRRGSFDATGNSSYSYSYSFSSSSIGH
mutant desmoplakin p.Tyr1188His fused to GFP (P15924, form named): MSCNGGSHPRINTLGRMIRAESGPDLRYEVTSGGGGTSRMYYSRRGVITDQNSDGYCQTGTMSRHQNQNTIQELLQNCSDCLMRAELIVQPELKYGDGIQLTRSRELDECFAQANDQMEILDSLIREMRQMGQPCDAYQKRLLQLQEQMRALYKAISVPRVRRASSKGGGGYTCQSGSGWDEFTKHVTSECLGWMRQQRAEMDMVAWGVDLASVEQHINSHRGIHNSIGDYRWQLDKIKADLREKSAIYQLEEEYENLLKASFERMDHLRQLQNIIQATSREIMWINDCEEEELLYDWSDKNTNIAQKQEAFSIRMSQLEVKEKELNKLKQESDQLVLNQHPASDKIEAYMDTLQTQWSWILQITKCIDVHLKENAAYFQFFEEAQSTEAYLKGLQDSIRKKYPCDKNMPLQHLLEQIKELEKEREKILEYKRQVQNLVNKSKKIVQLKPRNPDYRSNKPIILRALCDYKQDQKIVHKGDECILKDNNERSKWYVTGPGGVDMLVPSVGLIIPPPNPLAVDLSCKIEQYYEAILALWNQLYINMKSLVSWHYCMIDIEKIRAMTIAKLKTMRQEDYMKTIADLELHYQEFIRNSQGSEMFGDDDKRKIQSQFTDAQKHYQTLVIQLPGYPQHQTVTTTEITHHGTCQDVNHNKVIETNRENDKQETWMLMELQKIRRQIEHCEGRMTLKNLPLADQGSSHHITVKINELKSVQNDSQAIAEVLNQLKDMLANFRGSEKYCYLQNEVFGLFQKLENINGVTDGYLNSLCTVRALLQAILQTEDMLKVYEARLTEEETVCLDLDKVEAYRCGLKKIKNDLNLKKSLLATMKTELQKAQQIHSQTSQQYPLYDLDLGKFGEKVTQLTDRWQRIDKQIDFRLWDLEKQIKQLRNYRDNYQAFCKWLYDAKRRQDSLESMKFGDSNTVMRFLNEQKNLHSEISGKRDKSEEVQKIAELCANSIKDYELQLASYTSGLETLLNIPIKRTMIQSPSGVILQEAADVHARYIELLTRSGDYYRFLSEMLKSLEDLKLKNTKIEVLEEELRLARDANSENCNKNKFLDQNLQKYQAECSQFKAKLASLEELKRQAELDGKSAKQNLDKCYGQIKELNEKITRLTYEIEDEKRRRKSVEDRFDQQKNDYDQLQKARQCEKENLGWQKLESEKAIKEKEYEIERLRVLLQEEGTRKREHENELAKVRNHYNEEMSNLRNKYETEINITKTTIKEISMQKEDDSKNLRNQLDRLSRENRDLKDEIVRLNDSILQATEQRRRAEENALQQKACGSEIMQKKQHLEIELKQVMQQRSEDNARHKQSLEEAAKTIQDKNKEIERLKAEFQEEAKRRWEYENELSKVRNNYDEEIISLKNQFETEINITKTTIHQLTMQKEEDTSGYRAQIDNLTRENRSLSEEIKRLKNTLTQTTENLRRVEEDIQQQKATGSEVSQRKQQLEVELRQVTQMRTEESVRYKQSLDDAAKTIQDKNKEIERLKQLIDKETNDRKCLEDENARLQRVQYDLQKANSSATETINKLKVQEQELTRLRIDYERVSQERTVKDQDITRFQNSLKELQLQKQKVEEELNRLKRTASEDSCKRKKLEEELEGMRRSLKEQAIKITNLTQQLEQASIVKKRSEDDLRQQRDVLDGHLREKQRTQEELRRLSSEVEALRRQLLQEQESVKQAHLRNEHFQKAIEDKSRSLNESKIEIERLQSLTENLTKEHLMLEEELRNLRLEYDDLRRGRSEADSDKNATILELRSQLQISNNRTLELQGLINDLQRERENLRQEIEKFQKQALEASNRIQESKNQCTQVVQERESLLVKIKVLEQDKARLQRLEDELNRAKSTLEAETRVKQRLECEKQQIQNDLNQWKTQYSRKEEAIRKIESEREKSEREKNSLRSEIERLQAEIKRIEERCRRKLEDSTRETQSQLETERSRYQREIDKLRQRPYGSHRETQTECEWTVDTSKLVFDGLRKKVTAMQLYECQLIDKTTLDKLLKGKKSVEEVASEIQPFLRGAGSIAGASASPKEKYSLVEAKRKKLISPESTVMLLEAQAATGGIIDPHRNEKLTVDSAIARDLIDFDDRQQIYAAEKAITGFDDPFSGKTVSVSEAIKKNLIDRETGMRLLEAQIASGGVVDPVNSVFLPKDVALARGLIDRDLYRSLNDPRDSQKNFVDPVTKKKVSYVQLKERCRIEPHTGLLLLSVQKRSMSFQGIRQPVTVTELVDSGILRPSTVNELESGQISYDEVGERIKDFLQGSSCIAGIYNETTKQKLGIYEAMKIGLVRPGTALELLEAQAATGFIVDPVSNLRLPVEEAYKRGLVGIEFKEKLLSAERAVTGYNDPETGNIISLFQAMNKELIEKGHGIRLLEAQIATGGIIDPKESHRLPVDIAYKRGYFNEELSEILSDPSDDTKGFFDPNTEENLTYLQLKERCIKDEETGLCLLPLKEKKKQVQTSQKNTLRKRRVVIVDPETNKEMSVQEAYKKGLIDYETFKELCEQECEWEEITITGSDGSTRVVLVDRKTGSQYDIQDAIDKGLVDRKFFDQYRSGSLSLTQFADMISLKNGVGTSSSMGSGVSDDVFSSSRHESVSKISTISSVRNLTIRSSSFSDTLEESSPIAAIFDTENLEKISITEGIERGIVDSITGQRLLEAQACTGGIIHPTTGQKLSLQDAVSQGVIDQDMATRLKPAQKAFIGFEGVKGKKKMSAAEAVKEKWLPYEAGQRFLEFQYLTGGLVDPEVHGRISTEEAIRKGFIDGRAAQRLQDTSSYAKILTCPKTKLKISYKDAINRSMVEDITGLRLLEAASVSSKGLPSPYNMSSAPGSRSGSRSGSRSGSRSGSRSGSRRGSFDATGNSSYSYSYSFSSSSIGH

binding | Substance
binds | mutant desmoplakin p.Tyr1188His fused to GFP (from UniProt P15924 1-2871)
binds | wild-type desmoplakin (DSP), fused to FLAG or to GFP (from UniProt P15924 1-2871)
